Experimental data reported in patent US20090068103.

Sequences of proteins named here, by UniProt entry; tags and fusion partners are left off. Residues count along the entry.
UniProt P24821, 23-2201: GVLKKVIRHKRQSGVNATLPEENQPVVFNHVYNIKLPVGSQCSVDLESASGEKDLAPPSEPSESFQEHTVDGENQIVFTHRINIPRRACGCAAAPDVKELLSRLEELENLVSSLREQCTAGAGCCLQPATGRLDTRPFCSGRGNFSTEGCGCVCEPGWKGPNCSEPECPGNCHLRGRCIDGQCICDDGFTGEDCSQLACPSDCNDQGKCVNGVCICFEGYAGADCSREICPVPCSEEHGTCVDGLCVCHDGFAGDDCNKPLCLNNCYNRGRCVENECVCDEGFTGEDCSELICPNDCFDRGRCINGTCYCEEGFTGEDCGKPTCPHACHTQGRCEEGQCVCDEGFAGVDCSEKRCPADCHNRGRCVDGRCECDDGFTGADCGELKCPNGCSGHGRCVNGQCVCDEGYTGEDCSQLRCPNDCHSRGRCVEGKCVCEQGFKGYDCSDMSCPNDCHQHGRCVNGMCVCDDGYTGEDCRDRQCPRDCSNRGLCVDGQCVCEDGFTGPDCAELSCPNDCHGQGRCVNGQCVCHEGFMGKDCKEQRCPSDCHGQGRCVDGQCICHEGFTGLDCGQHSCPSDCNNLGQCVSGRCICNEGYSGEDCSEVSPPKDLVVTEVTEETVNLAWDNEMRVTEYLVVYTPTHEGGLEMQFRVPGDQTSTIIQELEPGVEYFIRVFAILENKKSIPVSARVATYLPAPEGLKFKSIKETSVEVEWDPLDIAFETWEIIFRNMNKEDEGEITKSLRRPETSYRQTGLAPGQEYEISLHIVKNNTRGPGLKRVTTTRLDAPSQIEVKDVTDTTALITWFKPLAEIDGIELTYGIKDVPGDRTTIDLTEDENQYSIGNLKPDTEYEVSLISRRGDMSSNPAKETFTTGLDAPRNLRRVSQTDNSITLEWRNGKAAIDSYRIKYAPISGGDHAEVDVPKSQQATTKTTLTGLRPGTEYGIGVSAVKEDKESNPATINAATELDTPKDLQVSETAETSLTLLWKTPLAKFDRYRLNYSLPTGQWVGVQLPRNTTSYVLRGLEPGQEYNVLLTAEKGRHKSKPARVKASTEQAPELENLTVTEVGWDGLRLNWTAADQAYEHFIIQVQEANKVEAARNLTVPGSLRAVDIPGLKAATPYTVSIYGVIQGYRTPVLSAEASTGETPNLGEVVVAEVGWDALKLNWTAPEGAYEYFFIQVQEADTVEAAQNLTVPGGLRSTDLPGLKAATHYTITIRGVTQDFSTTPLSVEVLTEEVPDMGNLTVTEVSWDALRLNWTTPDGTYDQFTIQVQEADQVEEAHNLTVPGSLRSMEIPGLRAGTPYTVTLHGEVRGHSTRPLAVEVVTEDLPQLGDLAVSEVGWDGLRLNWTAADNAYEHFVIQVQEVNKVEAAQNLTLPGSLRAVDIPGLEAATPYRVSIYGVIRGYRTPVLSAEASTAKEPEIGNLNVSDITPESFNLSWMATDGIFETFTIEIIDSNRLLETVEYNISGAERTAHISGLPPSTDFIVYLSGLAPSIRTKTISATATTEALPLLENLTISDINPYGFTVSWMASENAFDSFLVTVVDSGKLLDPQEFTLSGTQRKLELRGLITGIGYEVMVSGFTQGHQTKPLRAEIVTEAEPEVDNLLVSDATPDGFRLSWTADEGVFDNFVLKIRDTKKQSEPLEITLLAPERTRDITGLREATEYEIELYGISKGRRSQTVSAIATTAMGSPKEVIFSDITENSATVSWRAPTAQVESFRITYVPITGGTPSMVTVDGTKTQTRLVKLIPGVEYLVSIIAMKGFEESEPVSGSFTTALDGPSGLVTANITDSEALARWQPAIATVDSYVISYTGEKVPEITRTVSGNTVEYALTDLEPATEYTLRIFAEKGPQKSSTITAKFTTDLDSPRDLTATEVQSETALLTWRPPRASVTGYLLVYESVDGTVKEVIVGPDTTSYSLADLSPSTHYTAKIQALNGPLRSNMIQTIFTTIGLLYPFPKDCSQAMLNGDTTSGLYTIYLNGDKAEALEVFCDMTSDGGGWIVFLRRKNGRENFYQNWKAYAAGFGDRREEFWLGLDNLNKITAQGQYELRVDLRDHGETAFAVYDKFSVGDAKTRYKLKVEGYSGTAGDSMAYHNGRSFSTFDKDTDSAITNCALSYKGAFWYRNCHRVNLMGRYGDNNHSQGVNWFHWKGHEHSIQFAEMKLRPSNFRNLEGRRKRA

Target: Tenascin-C (TN-C) (Homo sapiens) (UniProt P24821)
Assay: competition with a labelled probe
Conditions: 5'-NH2-C6, 3'-3'-T cap, filter competition vs 1 nM 99mTc-TTA1-MAG2, 2 nM TN-C

Row | Sequence | EC50 ((CH2CH2O)6 spacer between GGGAGGACG and CGUCGC, 2' sugar modifications not marked in printed sequence, TBSMC (20 mM Tris pH 7.4, 137 mM NaCl, 1 mM CaCl2, 1 mM MgCl2), 37 C) | EC50 (mGmGmG mAmGG mAfCmG-(CH2CH2O)6-fCGfU fCGfC fCGfU mAmAfU mGmGmA fUmGfU fUfUfU mGfCfU fCfCfC UmG (m=2'-OMe, f=2'-F), spacer printed as (CH2CH2O)2 in claim 9, TBSMC pH 7.4, 1 mM CaCl2, 1 mM MgCl2, 37 C, variant of TTA1)
1 | GGGAGGACGCGUCGCCGUAAUGGAUGUUUUGCUCCCUG [TTA1] | 6 nM | –
2 | GGGAGGACGCGUCGCCGUAAUGGAUGUUUUGCUCCCUG [TTA2] | – | 31 nM

For at least one entry, the source does not settle the construct or the ends of the probe.
